Results on 108 sequences are retold here after PubChem BioAssay AID1508600 (Functional Genomics Laboratory (NCATS/FGL), 2020).

About 3,700 (7%) of roughly 53,000 sequences were called active.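 Rule for the calls: active = gene knockdowns whose robust z-score for IL-1 alpha signal is at least 2 or at most -2, so actives lie on both sides; inactive = the rest.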 The list shows a part of the results.

This assay in a line: Components of the Cytosolic LPS Sensing Pathway: Gene Identification via Genome-wide siRNA Screen. The following applies: RAW264.7 macrophages, IL-1a HTRF, actives lie on both sides, screened at 100 nM (by protocol), cells primed 5 h with Pam3CSK4 first. The text has this: Non-canonical inflammasome activation by cytosolic LPS is a critical component of the host response to Gram-negative bacterial infection, however we lack a comprehensive understanding of the cellular processes that control this pathway. Here we describe a genome-wide siRNA screen to identify genes regulating the mouse macrophage IL-1 alpha response to cytosolic LPS.
RAW264.7 cells were maintained in complete DMEM media, comprising DMEM with 4.5 g/L glucose, 10% FBS (Gemini Bio-Products, West Sacramento, CA), 2 mM Glutamine (Lonza) and 20 mM HEPES (Lonza), hereafter complete DMEM.
The RNAi screen was conducted in 384-well format using the Ambion Silencer Mouse Genome siRNA Library (#4391425), which consists of three unique, nonoverlapping, nonpooled siRNAs for each of 17,000 gene targets. siRNA reagents ([…]) were stamped into 384-well white flat-bottom microplates (Corning, 3570) using a Velocity11 VPrep liquid handling system (Agilent) integrated into a BioCel robotic platform (Agilent) in columns 1-22, leaving columns 23-24 empty for negative (Ambion, Negative control #1) and positive (mouse Casp4) controls, respectively. The median value of each plate's negative control column was used to normalize sample wells, and the positive control was used to assess transfection efficiency and assay performance.
Lipofectamine RNAiMAX Transfection Reagent ([…]; Invitrogen) was added in […] serum-free, antibiotic-free media to plate wells using a Thermo Scientific Matrix WellMate and Microplate Stacker. Plates were incubated for 45 min at room temperature to allow for the sufficient formation of siRNA-lipid complexes. Cells were seeded at a density of 1x10^4 cells per well in 20 microL media containing 20% (vol/vol) FBS without antibiotics. The final concentration of siRNA in each well was 100 nM. Cells were cultured for 48h at 37 degrees C in 5% CO2 before addition of […] of TLR ligand Pam3CSK4 for 5 hours. The medium was then removed, replaced with […] growth media and cell were transfected with […] of LipidA and TransIT-TKO (Mirus) for 24 hour. At the end of the LipidA treatment, […] of supernatant was transferred to a 384 Greiner Bio-one non-binding low volume plate and […] of IL-1a HTRF reagent (Cisbio, 62MIL1APEH) was added and incubated at room temperature overnight. The plates were read on an EnVision plate reader (PerkinElmer). Cell viability was measured by adding 20ul Cell Titer Glo to the original plate and running a luminescence read on the EnVision. The quantified IL-1a signal for each siRNA gene-targeted well was divided by the median of the negative control wells and multiplied by 100 to achieve a negative control normalized value for each well/siRNA. This normalized value was then used to generate a robust z-score by first taking the log of each value and then by subtracting the median and dividing by the […].
On the technique in general: Time-resolved FRET reads energy transfer from a long-lived donor to a nearby acceptor.
As for GGACAGAUAGUCCUUCGCUTT against Slc7a8, the z-score was inactive: -0.778. The figure for GCAUCAUUAUCUUACCAACTT against Olfr826 is inactive: -0.994; for GGCAUAGCAUGAAUGGACGTT against Cript it is inactive: -0.302. Consider GGUCUACCAUUUCACCUUGTT against Cops4, for which the z-score was inactive: 1.19. Regarding CCCUUCUUUCAAGAAUCUUTT against Olfr325, the z-score is inactive: 0.293. The figure for CCAAGUUGAGAAAUUUCUGTT against Cndp1 is inactive: -0.127; for GGAACUCGGAAUUUCUGCCTT against Csf2 it is inactive: 0.181.

Consider CGUGCACUGACCAACCAUATT against Dcxr, for which the z-score was inactive: 0.055.

Turning to GGUCUUACCAACAGAACCCTT against Rad51ap1, the z-score was inactive: 1.

As to CCCUUAAUGUUUCUAUGGCTT against Klf5, the z-score was inactive: -0.523. The figure for GGUGACUGGUUUGUUGCUUTT against Pstk is inactive: -1.39; for CCAGCAAUGUACCAGUUCATT against Micos13 it is active: -2.02.

On to GGAAGUUUUGCUAUUACACTT against Ubap1, for which the z-score was inactive: 1.85.

CCUAUGUCAAAAAGGUUCGTT against Slc4a2: the z-score is inactive: 1.19.

For the sequence GGAAAACGGAGAUUUGGAGTT against Ess2, the z-score was inactive: 0.649. Consider GGAUCAAUGUGGUACCUAUTT against Sf3a1, for which the z-score is active: -2.79. For GGAAAACCUAAGGUUUAAUTT against Marchf10, the z-score is inactive: 1.05. With GGGACAUCAUGUGAAGGACTT against Timm50, the z-score was inactive: -1.83. The figure for GCCUUUUAUUUGACUCAUATT against Zfp346 is inactive: -0.511; for GCACAUUCAUAGGAGUACCTT against Vmn1r237 it is inactive: 0.371; for GGAAGACACUCCUCUGCUCTT against Oca2 it is inactive: 1.63.

With GGUCAAAUGAGCAGAAUAATT against Foxi1, the z-score was inactive: -0.256. Next, GGUUCAACAUGAAAAUGAUTT against Lingo2: inactive: -0.251.

On to GGAUUUACAGAAGUGAAGGTT against Cald1, for which the z-score was inactive: 0.547. As to GGUAAUACCACCUCACCUUTT against Fam214b, the z-score was inactive: -0.0713.

Turning to CCCUUGUCUCAUGUCAAGGTT against Eras, the z-score is inactive: -1.48. The figure for AAAAGAUGCAUGUCUCCUUTT against Hbq1a is inactive: -1.76; for GGCGCAGUACUAAAGACAGTT against Pbld2 it is inactive: 1.55. Next, CGUAUCAAACAGGAAAUGGTT against Arid5b: inactive: -0.0746. Next, GGUAAUUGUUGUUUUUGGGTT against Npy4r: inactive: 0.133; GAAACUAUGGCUGAAAAUGTT against Klk1: inactive: -0.838; GGAGCAAUUCAAAUUCAAATT against Psme3ip1: inactive: 1.26. For CCUGCAUGACGGAAUUCUUTT against Acacb, the z-score was inactive: 1.19.

GGCUGUGAAGUCUAAAACUTT against Thbs4: the z-score is inactive: 0.703.

Turning to CUCUAAGAAACAUGGUGGCTT against Sod1, the z-score was inactive: -0.304. The figure for GGUUUAUGAGCUCUACGCCTT against Tmem11 is inactive: -0.843; for CCAUUGACUUACUUCUAAGTT against Gimap6 it is inactive: 0.58.

Turning to CCUUCCAACUCUUCUCCUCTT against H2-T3, the z-score is inactive: 0.915.

As to CGAGAUGAAAUAUACAGAUTT against Trat1, the z-score was inactive: 1.12.

Regarding GCAACAACCGCACAUCUCATT against Cdc26, the z-score is inactive: 1.33.

Regarding GCUAAUAUACCUCUCAAAATT against Zfp946, the z-score is inactive: 1.61. The figure for GGCUAUUAUUGAGAGUUCATT against Tmem168 is inactive: 0.139. Next, GCCGUCUUAACACCUAUGGTT against Olfr690: inactive: -0.21. Next, GCCACUUUUGUCAAGGAAATT against Supt16: inactive: 0.183; GCACUCCUUCGAUUUAAUCTT against Lpcat4: inactive: -0.949. Take GGAUGCUUUAACUUCAAACTT against Crebrf: the z-score is active: 2.56. In the case of GGGCCUUAGGCUAUUCCUATT against Otub2, the z-score was inactive: 0.156.

For GGAUAUCAUUUCAUCUUGUTT against H3c7, the z-score was inactive: 0.405. GGACCAGCACCAUUUCCUATT against Cramp1l: the z-score was inactive: -0.675. For GGACUGGGAACUUCUUGACTT against B4galnt4, the z-score was inactive: 0.123. Next, GGACAACGAUAGCUAACCUTT against Tmem63a: inactive: 0.453; GCCUCAACUCAAGCCUUCATT against Olfr525: inactive: 0.0506; GGAUGGAUAUCACAUAGAATT against Fcrls: inactive: 1.81. The figure for GGAAAGAUGUGGUCCAGCUTT against Sirt3 is inactive: 0.373; for GGAUACCUGAAAAUUGAUATT against Npr1 it is inactive: -0.667; for GGAGUUUUUAUUCAAGGAATT against Slc35b3 it is inactive: -1.07. The figure for CCGGAAAUAAAGGCGGAGUTT against Cd99 is inactive: 0.25. Regarding GGCAGAUAGUACUGAUCAATT against Mucl2, the z-score is inactive: 0.16.

As for GCCUAAAAAGCUUCUUUAGTT against Amer1, the z-score is inactive: 0.15. In the case of GGAUGAGGACACCAUUGAUTT against Sumo3, the z-score is inactive: 0.723. The figure for GAUUUCUAUACAGCCUAUCTT against Olfr799 is inactive: 0.312; for GCAGAUUUGAAUUCAGACATT against Mup4 it is inactive: 0.577; for GGAAACUCCAACUUGUUUGTT against Ankra2 it is inactive: 1.18.

Regarding GGACUUCCACUCACGUUACTT against Ppp2r3d, the z-score was inactive: 0.499. As for CGGUGGUGUGAAGCCCAAUTT against Pm20d2, the z-score was inactive: 0.348. The figure for GGAGGUAGCCCUUCAGAUGTT against Igdcc3 is inactive: 1.1. Next, GCUCGAUGGAUUGUAAUCUTT against Efcab11: inactive: -0.148; CCACCUCCUCUCGAUACAATT against Zfp36: inactive: 0.993.

GGCAAAGCUGUCUUAGAGGTT against Mettl23: the z-score was inactive: -1.35.

For GGCCUCAUCUUGAAUAUUUTT against Hsd17b3, the z-score was inactive: -1. In the case of GGGAGAACCGGAUGAGAUUTT against Itpa, the z-score is inactive: -0.871. As to GACCGAGGUCAACAGAGUGTT against Slc6a20b, the z-score is inactive: 0.124. The figure for GGAUUCCAGAGAAAUGUGATT against Lrrc66 is active: -2.62; for GGGUCAUCUUACCACAGUUTT against Nptxr it is inactive: -1; for CCUGGUACAUCUCUGUUACTT against Olfr449 it is inactive: 1.53. GGUUUCAUCCUGGUGUAUATT against Rap2c: the z-score is inactive: -1.33.

In the case of CCUUCUAGUUUGCCUCUGGTT against Olfr877, the z-score is inactive: 0.332.

For the sequence CCAAGUCCAUUUCAUACUCTT against Ormdl3, the z-score was inactive: 1.94.

In the case of GGCAUUUCUCGACCUAUGGTT against Hoxc6, the z-score was inactive: 0.0965. As for CCUUAAACCUCAGCUAAUGTT against Utp14b, the z-score is inactive: 1.83. Next, AAAUCCUGUUAGGGAGUGUTT against Olfr57: inactive: 0.96. With GGUUUUGUUGCAUGGUAAGTT against Ubb, the z-score was inactive: -0.973. Next, CGAAACACACUGGUAAGUGTT against Col2a1: inactive: -1.45; GGCAUACCAAAAUCCAUUUTT against Egr1: inactive: 1.2. With GGUUGAGAAGAAGAAGAAATT against Rpl6, the z-score was inactive: -0.0381. For GGCAUGUGCAUUUGCUACGTT against Lama1, the z-score is inactive: 0.375. Next, GGUCAUCAAUCUCACCACUTT against Tmem145: inactive: -0.155; GGAUCACAAGCUGGUGUUCTT against Mon1b: inactive: 1.84. Next, GCACAGAGUCUAGUGUUUATT against Ube2j2: inactive: 0.325; CGAGUGCUUCUCUUGACAUTT against Mrpl22: inactive: -0.43.

With GCAAUAAUGGCAAUUACGGTT against Slc35f4, the z-score was inactive: 1.13. Next, GGAGCUCAACGCAUUUUUCTT against Neurod2: inactive: -0.0271. Next, GGCUGAAAAUGCAUGUAUGTT against Ptger1: inactive: -0.14; GGUGAACUGGAGUCAUUUATT against Cebpz: inactive: 0.321; GGUAUAAAGAACUCUGUCATT against Cep78: active: -2.49. With GCUAACAGUUCAUAGAAAATT against Nxn, the z-score is inactive: 0.76.

Take GGCCAAGUUCGGCAUCUUUTT against Fuca2: the z-score is inactive: -0.738.

On to GGCAGAUUUGGCAAGACAATT against Nelfb, for which the z-score is inactive: 0.489.

As for GGAGGUUUUUAAAUGUGUUTT against Sbk1, the z-score was inactive: 0.261. In the case of GCAUUGGGUAUAAAGUAAGTT against Mgat4e, the z-score was inactive: 1.86. Regarding CCUGUAUACGCAGAACACUTT against Gpc1, the z-score is inactive: 0.929. Next, GCCACAAGUUAAUGCUCUUTT against Rfx5: inactive: -0.898.

On to GGGUCUGCAUAGGUUGUUATT against Epm2a, for which the z-score was inactive: 1.04.

Turning to CGGCUAGAUGAUCCUACCUTT against Tsga13, the z-score is inactive: -0.542. For GCAAUGUGUCAGGCACACATT against Pax2, the z-score is inactive: -0.16. Regarding GGACCACAGCUGGAUAUAUTT against Sik2, the z-score was inactive: 0.277.

In the case of GGCAGAAGAAGAAGUUAUATT against Gja10, the z-score is inactive: 1.1. Consider GCUGAUGUGAAUGGCUCACTT against Gmeb2, for which the z-score was inactive: -1.02.
